Results are given as percent effect.
The record does not define 0% and 100%; most values in the screen are far below 50% and negative numbers occur (in some assays of this library far below -100).
The compounds are a random part of those screened.

Amino acid sequences for entries named in this document (tags omitted). Residues count along the entry.
UniProt A4I591, 1-473: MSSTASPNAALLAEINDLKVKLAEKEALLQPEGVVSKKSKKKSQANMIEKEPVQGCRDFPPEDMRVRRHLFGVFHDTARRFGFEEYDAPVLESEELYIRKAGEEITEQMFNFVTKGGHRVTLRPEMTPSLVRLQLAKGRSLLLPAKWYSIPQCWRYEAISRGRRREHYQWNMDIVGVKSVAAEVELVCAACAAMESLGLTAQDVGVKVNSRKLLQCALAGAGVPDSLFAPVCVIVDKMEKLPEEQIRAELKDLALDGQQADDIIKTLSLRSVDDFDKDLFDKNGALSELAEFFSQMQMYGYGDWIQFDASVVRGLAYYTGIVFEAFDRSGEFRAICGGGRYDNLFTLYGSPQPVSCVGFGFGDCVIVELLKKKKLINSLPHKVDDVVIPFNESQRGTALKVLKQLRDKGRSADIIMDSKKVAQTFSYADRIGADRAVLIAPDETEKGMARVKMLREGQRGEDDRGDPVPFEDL
UniProt I6X8D2, whole entry: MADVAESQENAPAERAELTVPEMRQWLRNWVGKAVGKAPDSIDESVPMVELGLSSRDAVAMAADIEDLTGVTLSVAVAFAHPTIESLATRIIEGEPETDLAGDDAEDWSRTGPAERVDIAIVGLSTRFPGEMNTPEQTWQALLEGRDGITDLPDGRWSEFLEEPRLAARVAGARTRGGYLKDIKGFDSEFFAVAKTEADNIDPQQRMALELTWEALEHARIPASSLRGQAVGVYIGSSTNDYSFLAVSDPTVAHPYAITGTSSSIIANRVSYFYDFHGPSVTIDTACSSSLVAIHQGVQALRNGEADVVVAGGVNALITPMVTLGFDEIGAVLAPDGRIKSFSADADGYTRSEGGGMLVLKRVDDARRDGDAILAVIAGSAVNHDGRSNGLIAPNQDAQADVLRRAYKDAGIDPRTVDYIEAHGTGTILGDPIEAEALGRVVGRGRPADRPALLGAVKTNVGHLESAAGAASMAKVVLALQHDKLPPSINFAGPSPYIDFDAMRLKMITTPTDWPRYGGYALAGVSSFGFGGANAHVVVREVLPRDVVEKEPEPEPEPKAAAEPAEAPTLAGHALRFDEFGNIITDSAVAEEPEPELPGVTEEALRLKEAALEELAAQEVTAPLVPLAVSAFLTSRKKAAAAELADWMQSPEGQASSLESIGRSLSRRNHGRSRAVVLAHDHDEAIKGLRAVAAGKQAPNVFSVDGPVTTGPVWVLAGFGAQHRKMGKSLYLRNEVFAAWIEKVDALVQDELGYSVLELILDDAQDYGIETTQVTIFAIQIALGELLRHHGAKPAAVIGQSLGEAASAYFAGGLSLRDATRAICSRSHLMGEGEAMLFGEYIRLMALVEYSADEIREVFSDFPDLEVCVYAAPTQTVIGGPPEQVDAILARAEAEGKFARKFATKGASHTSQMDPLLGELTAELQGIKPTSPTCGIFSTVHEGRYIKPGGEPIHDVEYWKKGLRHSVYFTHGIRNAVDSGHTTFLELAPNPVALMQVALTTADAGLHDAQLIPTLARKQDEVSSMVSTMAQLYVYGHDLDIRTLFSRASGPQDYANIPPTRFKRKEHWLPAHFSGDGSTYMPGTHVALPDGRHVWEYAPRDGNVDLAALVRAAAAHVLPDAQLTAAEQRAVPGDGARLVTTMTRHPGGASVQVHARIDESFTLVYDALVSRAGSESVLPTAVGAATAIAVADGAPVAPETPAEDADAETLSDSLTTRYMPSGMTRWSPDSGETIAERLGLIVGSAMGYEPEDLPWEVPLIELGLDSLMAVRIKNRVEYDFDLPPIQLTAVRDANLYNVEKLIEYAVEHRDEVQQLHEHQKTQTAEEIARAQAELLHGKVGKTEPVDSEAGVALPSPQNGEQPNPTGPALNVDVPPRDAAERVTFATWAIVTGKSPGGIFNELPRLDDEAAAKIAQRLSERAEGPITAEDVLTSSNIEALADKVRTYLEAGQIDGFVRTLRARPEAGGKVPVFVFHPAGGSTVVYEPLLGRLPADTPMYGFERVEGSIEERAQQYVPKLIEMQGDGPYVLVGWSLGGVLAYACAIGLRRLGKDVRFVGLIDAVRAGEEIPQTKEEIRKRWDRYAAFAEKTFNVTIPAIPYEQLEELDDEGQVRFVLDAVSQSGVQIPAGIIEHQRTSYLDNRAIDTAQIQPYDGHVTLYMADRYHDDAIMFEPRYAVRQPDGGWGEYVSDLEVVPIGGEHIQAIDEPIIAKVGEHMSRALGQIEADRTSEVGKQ
UniProt P9WFT3, whole entry: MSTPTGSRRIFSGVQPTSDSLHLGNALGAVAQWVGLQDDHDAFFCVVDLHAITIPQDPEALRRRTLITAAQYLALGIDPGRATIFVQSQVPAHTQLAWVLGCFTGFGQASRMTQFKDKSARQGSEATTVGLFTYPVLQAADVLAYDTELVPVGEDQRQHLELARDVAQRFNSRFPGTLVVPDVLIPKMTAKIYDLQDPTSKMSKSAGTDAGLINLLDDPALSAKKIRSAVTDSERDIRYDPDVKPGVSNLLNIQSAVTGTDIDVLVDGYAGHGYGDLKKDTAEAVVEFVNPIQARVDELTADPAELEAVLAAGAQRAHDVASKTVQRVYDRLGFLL
UniProt Q4DA54, 1-478: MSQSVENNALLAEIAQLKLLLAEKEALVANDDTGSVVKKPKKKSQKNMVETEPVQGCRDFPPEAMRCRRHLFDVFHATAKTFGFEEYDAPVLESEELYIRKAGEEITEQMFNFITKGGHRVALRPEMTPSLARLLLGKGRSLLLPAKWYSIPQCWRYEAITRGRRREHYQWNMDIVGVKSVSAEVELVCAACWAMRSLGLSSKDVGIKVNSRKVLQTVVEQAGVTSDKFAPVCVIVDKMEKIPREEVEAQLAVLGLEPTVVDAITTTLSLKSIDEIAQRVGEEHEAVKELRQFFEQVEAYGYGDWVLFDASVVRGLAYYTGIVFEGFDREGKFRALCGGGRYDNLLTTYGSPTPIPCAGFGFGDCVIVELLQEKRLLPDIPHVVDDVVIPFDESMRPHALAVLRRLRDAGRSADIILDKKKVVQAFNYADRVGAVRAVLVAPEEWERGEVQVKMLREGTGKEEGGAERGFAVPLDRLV

A: 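Enzyme assay of histidyl-tRNA synthetase; the read-out is not stated. Target: Histidine-tRNA ligase, Leishmania infantum (UniProt A4I591). Concentration: 30 µM. The record gives no direction; compounds that gave an IC50 in retests scored well above the rest, so higher reads as stronger inhibition. The assay is labelled LdHisRS but filed under L. infantum. Of about 69,000 compounds tested this way, about 410 (0.6%) reached 50% or more in at least one test.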
B: 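Enzyme assay of the thioesterase domain of polyketide synthase 13; the read-out is not stated. Target: Polyketide synthase Pks13, Mycobacterium tuberculosis (UniProt I6X8D2). Concentration: 30 µM. The record gives no direction; the compounds picked for IC50 retests had high values, so higher reads as stronger inhibition. Size under these conditions: about 67,000 compounds, about 300 of them at 50% or above in at least one test.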
C: 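Enzyme assay of tryptophanyl-tRNA synthetase; the read-out is not stated. Target: Tryptophan-tRNA ligase, Mycobacterium tuberculosis (UniProt P9WFT3). Concentration: 10 µM. Higher most likely means stronger inhibition; the record gives no direction and few retests gave an IC50. Of about 65,000 compounds tested this way, about 64 (0.098%) reached 50% or more in at least one test.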
D: 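Histidine-tRNA ligase, Trypanosoma cruzi CL Brener (UniProt Q4DA54). Enzyme assay of histidyl-tRNA synthetase; the read-out is not stated. Compounds at 30 µM. Higher reads as stronger inhibition (inferred: compounds with an IC50 in retests scored well above the rest). About 69,000 compounds were tested under these conditions; 0.045% (about 31) showed 50% or more at least once.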

- O=C(c1ccc(Cn2cccc2)cc1)N1CCN(CCO)CC1 | A: 15.79%; B: -8.891%; C: -3.739%; D: 4.871%
- Cc1nn(Cn2ccc(C(=O)N3CCOCC3)n2)c(C)c1Cl | A: 19.54%; B: -15.97%; C: -0.7341%; D: 13.4%
- Cc1noc(-c2ccc(N3CCCC(C(N)=O)C3)nc2)n1 (stereo not drawn) | A: 1.653%; B: -3.961%; C: -5.942%; D: 4.082%
- Cc1ccsc1CN(CCCN(C)C)Cc1ccccn1 | A: 4.348%; D: 6.593%
- Cc1nsc(NC(=O)N2CCN(Cc3ccccc3F)C(=O)C2)n1 | A: 5.556%; B: -3.925%; C: 0.729%; D: 4.082%
- Cc1cnn(CC2CCCN2C(=O)CCc2ccsc2)c1 (stereo not drawn) | A: 10.67%; B: -21.79%; C: -3.987%; D: 0.3774%
- COC(=O)N1CCCC(C(=O)Nc2ccccc2CN2CCCC2)C1 (stereo not drawn) | A: 1.299%; B: 9.929%; C: -5.218%; D: 3.448%
- Cc1nc(-c2ccncc2)nc(N(C)CCc2ccncc2)c1C | A: 30%; B: 5.486%; C: 11.75%; D: 3.922%
- Cc1cc(NC(=O)CNC(C)(C)c2ccccc2)on1 | A: 9.524%; B: -15.68%; C: -0.5623%; D: 9.091%
- Cc1nnc(C2CCN(C(=O)c3ccsc3)CC2)s1 | A: 12.9%; B: -10.95%; C: 0.08333%; D: 5.699%
- Cc1cc(C[C@@H]2COC[C@@H]2NC(=O)CCN2Cc3ccccc3C2)on1 | A: -5.376%; B: 27.85%; C: 8.753%; D: 5.759%
- CC(C)c1ncncc1C(=O)N1CCCN(Cc2ccccc2)CC1 | A: 18.42%; B: -0.6328%; C: -0.6482%; D: 2.89%
- CCOc1cc(CNC(=O)N2CCC(Cc3cnn(C)c3)C2)ccn1 (stereo not drawn) | A: -2.128%; B: -12.6%; C: -0.07424%; D: -1.527%
- Cc1nc(CN2CCC(N3CCN(C)C3=O)CC2)no1 | A: 3.39%; B: -14.73%; C: 19.83%; D: 1.143%
- COc1cc(CNCCn2ccnc2)cc2c1OCO2 | A: 11.71%; B: -2.724%; C: 2.849%; D: -11.67%
- COCCn1c2c(ccc1=O)CC(NS(C)(=O)=O)CC2 (stereo not drawn) | A: 9.489%; B: -13.39%; C: -0.5286%; D: 2.732%
- c1ncn(Cc2cn3c(n2)CN(CC2CCCCC2)CC3)n1 | A: 22.37%; B: 14.4%; C: -0.2549%; D: 11.96%
- COc1cc(N2CC3(CCN(c4ncccn4)C3)C2)ncn1 | A: 9.735%; B: -22.43%; C: 3.586%; D: 3.226%
- CN(Cc1ccccc1)CC(O)Cn1cnc2ccccc2c1=O (stereo not drawn) | A: -29.79%; B: -2.938%; C: 1.114%; D: 3.053%
- CC(C)(C)CC(=O)N1C[C@@H]2C[C@H]1CN2 | A: -52.43%; B: -25.43%; C: -5.74%; D: -36.89%
- O=C(CN1C[C@H]2CC[C@@H]1CN(Cc1ccccn1)C2)Nc1ccccc1 | A: 22.58%; B: -17.28%; C: 2.768%; D: 3.448%
- CCc1nccn1CC1CCCN1S(=O)(=O)N1CCCOCC1 (stereo not drawn) | A: 11.67%; B: -26.54%; C: 0.784%; D: -3.478%
- COc1ccccc1OC1CN(C(=O)Cc2c(C)nc(C)[nH]c2=O)C1 | A: 14.75%; B: 1.436%; C: 1.575%; D: 7.071%

2 of the entries, repeated:

Compound,A,B,C,D
CC(C)(C)CC(=O)N1C[C@@H]2C[C@H]1CN2,-52.43%,-25.43%,-5.74%,-36.89%
O=C(c1ccc(Cn2cccc2)cc1)N1CCN(CCO)CC1,15.79%,-8.891%,-3.739%,4.871%

Data taken from ChEMBL document CHEMBL3988442, “University of Dundee, Small-Polar-MMV Screening Library” (2021).